Two substances from article PMC4879346 can be followed below.

For the experiment, the target named is MdATG8i (Malus domestica). The experiment is described as follows: two-hybrid; GAL4 system in yeast strain AH109; MdATG8i in pGBKT7 as bait, MdATG7a or MdATG7b in pGADT7 as prey; growth on SD-Leu-Trp and SD-Leu-Trp-His-Ade+X-alpha-gal plates.

No constants are given. Whether binding was seen depends on the method and setting. Binding can be weak; no strength is given.

With MdATG7a (from UniProt A0A068EPI7), the binding result was “binds”.

For MdATG7b (from UniProt A0A068EN18), the binding result is reported as “binds”.
